From doi:10.1101/2024.01.08.574726
These are yes or no findings as the source states them, for the method shown. Some binding calls cover weakened binding; strength is not graded here. For some assays here: Tags and fused reporters may be left off the sequences shown.

T1: ARC3_(598-741) (Arabidopsis thaliana) (UniProt Q6F6B5)
T1 sequence: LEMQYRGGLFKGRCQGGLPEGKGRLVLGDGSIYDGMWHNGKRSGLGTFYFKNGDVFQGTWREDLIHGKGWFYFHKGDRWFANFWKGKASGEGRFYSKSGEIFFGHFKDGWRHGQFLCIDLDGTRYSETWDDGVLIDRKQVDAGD

T2: BD-FtsZ1 (Arabidopsis thaliana) (UniProt Q42545)
T2 sequence: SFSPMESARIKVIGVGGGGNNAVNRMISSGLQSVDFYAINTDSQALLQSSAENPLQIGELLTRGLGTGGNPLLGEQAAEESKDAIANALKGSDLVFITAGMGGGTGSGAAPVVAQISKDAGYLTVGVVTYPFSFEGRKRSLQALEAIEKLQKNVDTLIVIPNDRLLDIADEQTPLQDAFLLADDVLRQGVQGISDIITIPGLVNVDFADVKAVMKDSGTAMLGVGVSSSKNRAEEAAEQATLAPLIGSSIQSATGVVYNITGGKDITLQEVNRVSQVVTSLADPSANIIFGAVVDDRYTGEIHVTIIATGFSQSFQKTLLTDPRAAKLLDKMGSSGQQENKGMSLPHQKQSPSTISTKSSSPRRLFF

T3: ARC3_(41-598), partner of AD-ARC6 derivatives in the two-hybrid (Arabidopsis thaliana) (UniProt Q6F6B5)
T3 sequence: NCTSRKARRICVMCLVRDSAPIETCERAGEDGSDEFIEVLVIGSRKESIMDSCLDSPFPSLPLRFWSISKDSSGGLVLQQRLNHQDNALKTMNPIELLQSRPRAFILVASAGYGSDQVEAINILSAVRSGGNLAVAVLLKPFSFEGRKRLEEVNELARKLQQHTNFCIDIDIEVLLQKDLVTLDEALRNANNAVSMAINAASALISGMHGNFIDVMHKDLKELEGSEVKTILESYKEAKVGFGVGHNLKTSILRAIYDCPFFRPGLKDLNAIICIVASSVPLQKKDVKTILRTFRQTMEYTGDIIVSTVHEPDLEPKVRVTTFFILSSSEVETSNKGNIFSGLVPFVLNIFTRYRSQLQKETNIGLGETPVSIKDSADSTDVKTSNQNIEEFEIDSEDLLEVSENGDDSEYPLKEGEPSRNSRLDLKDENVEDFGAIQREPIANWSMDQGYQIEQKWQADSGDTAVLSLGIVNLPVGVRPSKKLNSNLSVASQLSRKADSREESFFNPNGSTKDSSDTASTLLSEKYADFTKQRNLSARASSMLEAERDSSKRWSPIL

T4: ARC3_(41-741), partner of AD-ARC6 derivatives in the two-hybrid (Arabidopsis thaliana) (UniProt Q6F6B5)
T4 sequence: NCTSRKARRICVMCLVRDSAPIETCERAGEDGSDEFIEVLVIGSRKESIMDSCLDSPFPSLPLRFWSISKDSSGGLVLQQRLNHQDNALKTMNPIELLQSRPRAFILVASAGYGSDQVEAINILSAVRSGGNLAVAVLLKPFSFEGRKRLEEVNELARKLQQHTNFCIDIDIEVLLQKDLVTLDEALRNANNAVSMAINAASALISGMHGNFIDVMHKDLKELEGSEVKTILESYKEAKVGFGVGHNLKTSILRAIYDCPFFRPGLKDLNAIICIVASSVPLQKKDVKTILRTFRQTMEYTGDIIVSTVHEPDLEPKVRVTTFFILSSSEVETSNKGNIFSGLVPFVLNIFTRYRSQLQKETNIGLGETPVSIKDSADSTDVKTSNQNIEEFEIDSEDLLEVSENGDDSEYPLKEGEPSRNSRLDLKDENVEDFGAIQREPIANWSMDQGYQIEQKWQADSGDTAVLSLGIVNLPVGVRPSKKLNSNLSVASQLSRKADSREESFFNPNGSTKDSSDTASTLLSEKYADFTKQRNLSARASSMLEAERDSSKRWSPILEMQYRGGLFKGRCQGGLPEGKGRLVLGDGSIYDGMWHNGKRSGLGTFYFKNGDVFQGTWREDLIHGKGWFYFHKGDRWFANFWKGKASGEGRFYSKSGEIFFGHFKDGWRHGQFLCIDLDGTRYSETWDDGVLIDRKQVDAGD

T5: pGBKT7-ARC6JLD (Arabidopsis thaliana) (UniProt Q9FIG9)
T5 sequence: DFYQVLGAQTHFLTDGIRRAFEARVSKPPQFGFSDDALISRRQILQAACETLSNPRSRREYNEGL


What was measured:
Assay in all cases: two-hybrid
[1] = target: T1, ARC3_(598-741) (Arabidopsis thaliana)
[2] = target: T2, BD-FtsZ1 (Arabidopsis thaliana)
[3] = target: T3, ARC3_(41-598), partner of AD-ARC6 derivatives in the two-hybrid (Arabidopsis thaliana)
[4] = target: T4, ARC3_(41-741), partner of AD-ARC6 derivatives in the two-hybrid (Arabidopsis thaliana)
[5] = target: T5, pGBKT7-ARC6JLD (Arabidopsis thaliana)

Row | binding [1] | binding [2] | binding [3] | binding [4] | binding [5] | Binder
1 | binds | no binding | no binding | binds |  | ARC6_(68-614) (domain or fragment, UniProt Q9FIG9 68-614) ATLVSPPPSIDRPERHVPIPIDFYQVLGAQTHFLTDGIRRAFEARVSKPPQFGFSDDALISRRQILQAACETLSNPRSRREYNEGLLDDEEATVITDVPWDKVPGALCVLQEGGETEIVLRVGEALLKERLPKSFKQDVVLVMALAFLDVSRDAMALDPPDFITGYEFVEEALKLLQEEGASSLAPDLRAQIDETLEEITPRYVLELLGLPLGDDYAAKRLNGLSGVRNILWSVGGGGASALVGGLTREKFMNEAFLRMTAAEQVDLFVATPSNIPAESFEVYEVALALVAQAFIGKKPHLLQDADKQFQQLQQAKVMAMEIPAMLYDTRNNWEIDFGLERGLCALLIGKVDECRMWLGLDSEDSQYRNPAIVEFVLENSNRDDNDDLPGLCKLLETWLAGVVFPRFRDTKDKKFKLGDYYDDPMVLSYLERVEVVQGSPLAAAAAMARIGAEHVKASAMQALQKVFPSRYTDRNSAEPKDVQETVFSVDPVGNNVGRDGEPGVFIAEAVRPSENFETNDYAIRAGVSESSVDETTVEMSVADMLKE
2 |  | binds |  |  |  | ARC3_(41-598), partner of the BD-FtsZ proteins in the two-hybrid (domain or fragment, UniProt Q6F6B5 41-598) NCTSRKARRICVMCLVRDSAPIETCERAGEDGSDEFIEVLVIGSRKESIMDSCLDSPFPSLPLRFWSISKDSSGGLVLQQRLNHQDNALKTMNPIELLQSRPRAFILVASAGYGSDQVEAINILSAVRSGGNLAVAVLLKPFSFEGRKRLEEVNELARKLQQHTNFCIDIDIEVLLQKDLVTLDEALRNANNAVSMAINAASALISGMHGNFIDVMHKDLKELEGSEVKTILESYKEAKVGFGVGHNLKTSILRAIYDCPFFRPGLKDLNAIICIVASSVPLQKKDVKTILRTFRQTMEYTGDIIVSTVHEPDLEPKVRVTTFFILSSSEVETSNKGNIFSGLVPFVLNIFTRYRSQLQKETNIGLGETPVSIKDSADSTDVKTSNQNIEEFEIDSEDLLEVSENGDDSEYPLKEGEPSRNSRLDLKDENVEDFGAIQREPIANWSMDQGYQIEQKWQADSGDTAVLSLGIVNLPVGVRPSKKLNSNLSVASQLSRKADSREESFFNPNGSTKDSSDTASTLLSEKYADFTKQRNLSARASSMLEAERDSSKRWSPIL
3 | binds |  | binds | binds |  | ARC6_(ΔJLD) (domain or fragment, UniProt Q9FIG9) ATLVSPPPSIDRPERHVPIPILDDEEATVITDVPWDKVPGALCVLQEGGETEIVLRVGEALLKERLPKSFKQDVVLVMALAFLDVSRDAMALDPPDFITGYEFVEEALKLLQEEGASSLAPDLRAQIDETLEEITPRYVLELLGLPLGDDYAAKRLNGLSGVRNILWSVGGGGASALVGGLTREKFMNEAFLRMTAAEQVDLFVATPSNIPAESFEVYEVALALVAQAFIGKKPHLLQDADKQFQQLQQAKVMAMEIPAMLYDTRNNWEIDFGLERGLCALLIGKVDECRMWLGLDSEDSQYRNPAIVEFVLENSNRDDNDDLPGLCKLLETWLAGVVFPRFRDTKDKKFKLGDYYDDPMVLSYLERVEVVQGSPLAAAAAMARIGAEHVKASAMQALQKVFPSRYTDRNSAEPKDVQETVFSVDPVGNNVGRDGEPGVFIAEAVRPSENFETNDYAIRAGVSESSVDETTVEMSVADMLKE
4 |  |  |  |  | no binding | cpHsp70-1 (protein, UniProt Q9STW6 1-718) MASSAAQIHVLGGIGFASSSSSKRNLNGKGGTFMPRSAFFGTRTGPFSTPTSAFLRMGTRNGGGASRYAVGPVRVVNEKVVGIDLGTTNSAVAAMEGGKPTIVTNAEGQRTTPSVVAYTKSGDRLVGQIAKRQAVVNPENTFFSVKRFIGRKMNEVDEESKQVSYRVVRDENNNVKLECPAINKQFAAEEISAQVLRKLVDDASRFLNDKVTKAVITVPAYFNDSQRTATKDAGRIAGLEVLRIINEPTAASLAYGFDRKANETILVFDLGGGTFDVSVLEVGDGVFEVLSTSGDTHLGGDDFDKRVVDWLAAEFKKDEGIDLLKDKQALQRLTEAAEKAKIELSSLTQTNMSLPFITATADGPKHIETTLTRAKFEELCSDLLDRVRTPVENSLRDAKLSFKDIDEVILVGGSTRIPAVQELVRKVTGKEPNVTVNPDEVVALGAAVQAGVLAGDVSDIVLLDVTPLSIGLETLGGVMTKIIPRNTTLPTSKSEVFSTAADGQTSVEINVLQGEREFVRDNKSLGSFRLDGIPPAPRGVPQIEVKFDIDANGILSVSAVDKGTGKKQDITITGASTLPKDEVDQMVQEAERFAKDDKEKRDAIDTKNQADSVVYQTEKQLKELGEKIPGEVKEKVEAKLQELKDKIGSGSTQEIKDAMAALNQEVMQIGQSLYNQPGAGGPGAGPSPGGEGASSGDSSSSKGGDGDDVIDADFTDSQ
5 | binds |  |  |  |  | ARC6JLD (ARC6_(89-153)), as used in Figure 4A (domain or fragment, UniProt Q9FIG9 89-153) DFYQVLGAQTHFLTDGIRRAFEARVSKPPQFGFSDDALISRRQILQAACETLSNPRSRREYNEGL
6 |  |  |  |  | no binding | cpHsp70-2 (protein, UniProt Q9LTX9 1-718) MASSAAQIHILGGIGFPTSSSSSSTKNLDNKTNSIPRSVFFGNRTSPFTTPTSAFLRMGRRNNNASRYTVGPVRVVNEKVVGIDLGTTNSAVAAMEGGKPTIVTNAEGQRTTPSVVAYTKSKDRLVGQIAKRQAVVNPENTFFSVKRFIGRRMNEVAEESKQVSYRVIKDENGNVKLDCPAIGKQFAAEEISAQVLRKLVDDASRFLNDKVTKAVITVPAYFNDSQRTATKDAGRIAGLEVLRIINEPTAASLAYGFERKSNETILVFDLGGGTFDVSVLEVGDGVFEVLSTSGDTHLGGDDFDKRVVDWLASTFKKDEGIDLLKDKQALQRLTEAAEKAKIELSSLTQTNMSLPFITATADGPKHIETTLTRGKFEELCSDLLDRVRTPVENSLRDAKLSFKDIDEVILVGGSTRIPAVQDLVRKLTGKEPNVSVNPDEVVALGAAVQAGVLSGDVSDIVLLDVTPLSLGLETLGGVMTKIIPRNTTLPTSKSEVFSTAADGQTSVEINVLQGEREFVRDNKSIGSFRLDGIPPAPRGVPQIEVKFDIDANGILSVSASDKGTGKKQDITITGASTLPKDEVDTMVQEAERFAKEDKEKRDAIDTKNQADSVVYQTEKQLKELGEKIPGPVKEKVEAKLQELKEKIASGSTQEIKDTMAALNQEVMQIGQSLYNQPQPGGADSPPGGEASSSSDTSSSAKGGDNGGDVIDADFTDSN
